Hit rate of the full screen: of about 390,000 compounds, about 760 (0.19%) were called active. Inconclusive means that the source gave no clear call. Such entries were picked first, then a sample of the others. Calls come from the whole dose curve; as a rule, active = well fitted inhibition curve with a large enough effect; inconclusive = small, poorly fitted or top-dose-only effect; inactive = flat fitted curve, though single readings scatter. Potencies of inconclusive entries are doubtful fits and often do not repeat.
Experiment: qHTS for Inhibitors of Vif-A3F Interactions: qHTS; note: nearly all actives have a fitted effect of over 65% in size
Conditions: HeLa A3F-eYFP + Vif (tagged APOBEC3F with the HIV-1 protein that degrades it), YFP fluorescence increase; series mostly up to 46.1 µM
Summary of the method: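 Fluorescence increase (Ex 488/Em 500-530) after overnight compound treatment at 37 deg C flags inhibition of Vif-driven A3F-eYFP loss in stable HeLa A3F-eYFP/Vif cells seeded overnight beforehand.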
Potency is the fitted concentration of half-maximal effect.

| SMILES | Potency |
| --- | --- |
| Nc1cc2nsnc2cc1Br | inconclusive: 6.31 µM [inhibitor, single point] |
| CCCCC(=O)NC(c1ccc([N+](=O)[O-])cc1)c1c(O)ccc2ccccc12 (stereo not drawn) | inconclusive: 35.5 µM [inhibitor, single point] |
| O/N=C/c1ccc2cccc(O)c2n1 | inconclusive: 22.4 µM [inhibitor, partial curve, poor fit] |
| CCSc1nc2sc3c(c2c(=O)n1-c1ccccc1)CCN(C(C)C)C3 | inconclusive: 28.2 µM [inhibitor, single point] |
| Cc1ccc(S(=O)(=O)N/N=C2/CC(=O)CC(C)(C)C2)cc1[N+](=O)[O-] | inconclusive: 15.8 µM [inhibitor, partial curve, poor fit] |
| NC(=S)N/N=C/c1c(O)ccc2ccccc12 | inconclusive: 2.51 µM [inhibitor, partial curve, poor fit] |
| COc1ccc(Cl)cc1NC(=O)COC(=O)c1cc(C)oc1C | inactive |
| COC(=O)[C@H]1[C@H]2C[C@@H]3c4[nH]c5cc(OC)ccc5c4CCN3C[C@H]2C[C@@H](OC(=O)c2cc(OC)c(OC)c(OC)c2)[C@@H]1OC | inconclusive: 31.6 µM [inhibitor, single point] |
| O=C(CN(C1CCCCC1)C1CCCCC1)N1CCc2ccccc2C1 | inconclusive: 35.5 µM [inhibitor, single point] |
| CN1CCN(C2=Cc3ccccc3Sc3cc(F)c(Cl)cc32)CC1 | inconclusive: 17.8 µM [inhibitor, single point] |
| CC(=O)NC1=NC(=O)/C(=C/c2cc(C)n(-c3cccc(C(=O)O)c3)c2C)S1 | inconclusive: 20 µM [inhibitor, partial curve, poor fit] |
| CCOC(=O)c1c(-c2ccc(C)cc2)csc1NC(=O)/C(C#N)=C/c1ccc(O)c(OC)c1 | inconclusive: 3.16 µM [inhibitor, partial curve, poor fit] |
| CCN(c1ccccc1)S(=O)(=O)c1ccc2ccccc2c1 | inactive |
| Cc1ccc(/C=C2/CNC/C(=C/c3ccc(C)cc3)C2=O)cc1 | inconclusive: 3.98 µM [inhibitor, single point] |
| CCN1CCN(CC(=O)Nc2ccc(OC(F)(F)F)cc2)CC1 | inactive |
| O=c1nc(/C=C/c2ccccc2C(F)(F)F)cc(C(F)(F)F)[nH]1 | inactive |
| ON/C=N/C(=S)Nc1ncc(C(F)(F)F)cc1Cl | inconclusive: 35.5 µM [inhibitor, single point] |
| CCOC(=O)C1=C(CC)Nc2ccccc2N=C1NC(=O)c1ccc(S(=O)(=O)N(C)C)cc1 | inactive |

Not a retest: an excerpt of the list.

| SMILES | Potency |
| --- | --- |
| CCSc1nc2sc3c(c2c(=O)n1-c1ccccc1)CCN(C(C)C)C3 | inconclusive: 28.2 µM [inhibitor, single point] |
| Cc1ccc(S(=O)(=O)N/N=C2/CC(=O)CC(C)(C)C2)cc1[N+](=O)[O-] | inconclusive: 15.8 µM [inhibitor, partial curve, poor fit] |

Source: PubChem BioAssay AID602313 (National Center for Advancing Translational Sciences (NCATS), 2012)
